# Assay results taken from the supplement of paper PMC8728848.
# The other results are listed elsewhere or left out.
# B1: DCIR1 (Mus musculus), Q9QZ15 (protein)
# chain: MASEITYAEVKFKNESNSLHTYSESPAAPREKPIRDLRKPGSPSLLLTSLMLLLLLLAITFLVAFIIYFQKYSQLLEEKKAAKNIMHNELNCTKSVSPMEDKVWSCCPKDWRLFGSHCYLVPTVSSSASWNKSEENCSRMGAHLVVIQSQEEQDFITGILDTHAAYFIGLWDTGHRQWQWVDQTPYEESITFWHNGEPSSGNEKCATIIYRWKTGWGWNDISCSLKQKSVCQMKKINL
# Experiments:
# Test in all cases: glycan array binding signal (z-score within array); higher = stronger binding
# Conditions in all cases: glycan notation: IUPAC condensed, linker removed
# [1] = biological target: Fuc(a1-2)Gal6S(b1-3)GlcNAc
# Method in brief: (§1)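 Negative Z-scores can be read as non-binding. The Z-score is calculated within each array and then averaged across arrays of one protein sequence at different concentrations or buffers and across linkers. Arrays, 3228 in all, were curated from the Consortium for Functional Glycomics database and kept only where the protein sequence was available.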
# [2] = biological target: Fuc(a1-2)Gal6S(b1-3)GlcNAc6S
# Method in brief: as §1
# Fuc(a1-2)Gal6S(b1-4)Glc = biological target: Fuc(a1-2)Gal6S(b1-4)Glc
# Method in brief: as §1
# [3] = biological target: Fuc(a1-2)Gal6S(b1-4)Glc6S
# Method in brief: as §1
# Fuc(a1-2)[Gal(a1-3)]Gal = biological target: Fuc(a1-2)[Gal(a1-3)]Gal
# Method in brief: as §1
# [4] = biological target: Fuc(a1-2)[Gal(a1-3)]Gal(b1-3)GalNAc
# Method in brief: as §1
# [5] = biological target: Fuc(a1-2)[Gal(a1-3)]Gal(b1-3)GalNAc(b1-3)Gal(a1-4)Gal(b1-4)Glc
# Method in brief: as §1
# [6] = biological target: Fuc(a1-2)[Gal(a1-3)]Gal(b1-3)GlcNAc
# Method in brief: as §1
# [7] = biological target: Fuc(a1-2)[Gal(a1-3)]Gal(b1-3)GlcNAc(b1-2)Man(a1-3)[Fuc(a1-2)[Gal(a1-3)]Gal(b1-3)GlcNAc(b1-2)Man(a1-6)]Man(b1-4)GlcNAc(b1-4)GlcNAc
# Method in brief: as §1
# [8] = biological target: Fuc(a1-2)[Gal(a1-3)]Gal(b1-3)GlcNAc(b1-2)Man(a1-3)[Fuc(a1-2)[Gal(a1-3)]Gal(b1-3)GlcNAc(b1-2)Man(a1-6)]Man(b1-4)GlcNAc(b1-4)[Fuc(a1-6)]GlcNAc
# Method in brief: as §1
# [9] = biological target: Fuc(a1-2)[Gal(a1-3)]Gal(b1-3)GlcNAc(b1-3)GalNAc
# Method in brief: as §1
# [10] = biological target: Fuc(a1-2)[Gal(a1-3)]Gal(b1-3)GlcNAc(b1-6)GalNAc
# Method in brief: as §1
# [11] = biological target: Fuc(a1-2)[Gal(a1-3)]Gal(b1-4)Glc
# Method in brief: as §1
# [12] = biological target: Fuc(a1-2)[Gal(a1-3)]Gal(b1-4)GlcNAc
# Method in brief: as §1
# [13] = biological target: Fuc(a1-2)[Gal(a1-3)]Gal(b1-4)GlcNAc(b1-2)Man
# Method in brief: as §1
# [14] = biological target: Fuc(a1-2)[Gal(a1-3)]Gal(b1-4)GlcNAc(b1-2)Man(a1-3)[Fuc(a1-2)[Gal(a1-3)]Gal(b1-4)GlcNAc(b1-2)Man(a1-6)]Man(b1-4)GlcNAc(b1-4)GlcNAc
# Method in brief: as §1
# [15] = biological target: Fuc(a1-2)[Gal(a1-3)]Gal(b1-4)GlcNAc(b1-2)Man(a1-3)[Fuc(a1-2)[Gal(a1-3)]Gal(b1-4)GlcNAc(b1-2)Man(a1-6)]Man(b1-4)GlcNAc(b1-4)[Fuc(a1-6)]GlcNAc
# Method in brief: as §1
# [16] = biological target: Fuc(a1-2)[Gal(a1-3)]Gal(b1-4)GlcNAc(b1-3)GalNAc
# Method in brief: as §1
# [17] = biological target: Fuc(a1-2)[Gal(a1-3)]Gal(b1-4)GlcNAc(b1-3)[Fuc(a1-2)[Gal(a1-3)]Gal(b1-4)GlcNAc(b1-6)]GalNAc
# Method in brief: as §1
# [18] = biological target: Fuc(a1-2)[Gal(a1-3)]Gal(b1-4)GlcNAc(b1-6)GalNAc
# Method in brief: as §1
# [19] = biological target: Fuc(a1-2)[Gal(a1-3)]Gal(b1-4)[Fuc(a1-3)]Glc
# Method in brief: as §1
# [20] = biological target: Fuc(a1-2)[Gal(a1-3)]Gal(b1-4)[Fuc(a1-3)]GlcNAc
# Method in brief: as §1
# [21] = biological target: Fuc(a1-2)[Gal(a1-3)]Gal(b1-4)[Fuc(a1-3)]GlcNAc(b1-3)GalNAc
# Method in brief: as §1
# [22] = biological target: Fuc(a1-2)[Gal(a1-4)]Gal(b1-4)GlcNAc
# Method in brief: as §1
# [23] = biological target: Fuc(a1-2)[GalNAc(a1-3)]Gal
# Method in brief: as §1
# [24] = biological target: Fuc(a1-2)[GalNAc(a1-3)]Gal(b1-3)GalNAc(a1-3)[Fuc(a1-2)]Gal(b1-4)GlcNAc
# Method in brief: as §1
# [25] = biological target: Fuc(a1-2)[GalNAc(a1-3)]Gal(b1-3)GalNAc(b1-3)Gal(a1-4)Gal(b1-4)Glc
# Method in brief: as §1
# [26] = biological target: Fuc(a1-2)[GalNAc(a1-3)]Gal(b1-3)GlcNAc
# Method in brief: as §1
# [27] = biological target: Fuc(a1-2)[GalNAc(a1-3)]Gal(b1-3)GlcNAc(b1-2)Man(a1-3)[Fuc(a1-2)[GalNAc(a1-3)]Gal(b1-3)GlcNAc(b1-2)Man(a1-6)]Man(b1-4)GlcNAc(b1-4)GlcNAc
# Method in brief: as §1
# [28] = biological target: Fuc(a1-2)[GalNAc(a1-3)]Gal(b1-3)GlcNAc(b1-2)Man(a1-3)[Fuc(a1-2)[GalNAc(a1-3)]Gal(b1-3)GlcNAc(b1-2)Man(a1-6)]Man(b1-4)GlcNAc(b1-4)[Fuc(a1-6)]GlcNAc
# Method in brief: as §1
# [29] = biological target: Fuc(a1-2)[GalNAc(a1-3)]Gal(b1-3)GlcNAc(b1-3)GalNAc
# Method in brief: as §1
# [30] = biological target: Fuc(a1-2)[GalNAc(a1-3)]Gal(b1-3)GlcNAc(b1-6)GalNAc
# Method in brief: as §1
# [31] = biological target: Fuc(a1-2)[GalNAc(a1-3)]Gal(b1-4)Glc
# Method in brief: as §1
# [32] = biological target: Fuc(a1-2)[GalNAc(a1-3)]Gal(b1-4)GlcNAc
# Method in brief: as §1
# [33] = biological target: Fuc(a1-2)[GalNAc(a1-3)]Gal(b1-4)GlcNAc(b1-2)Man
# Method in brief: as §1
# [34] = biological target: Fuc(a1-2)[GalNAc(a1-3)]Gal(b1-4)GlcNAc(b1-2)Man(a1-3)[Fuc(a1-2)[GalNAc(a1-3)]Gal(b1-4)GlcNAc(b1-2)Man(a1-6)]Man(b1-4)GlcNAc(b1-4)GlcNAc
# Method in brief: as §1
# [35] = biological target: Fuc(a1-2)[GalNAc(a1-3)]Gal(b1-4)GlcNAc(b1-2)Man(a1-3)[Fuc(a1-2)[GalNAc(a1-3)]Gal(b1-4)GlcNAc(b1-2)Man(a1-6)]Man(b1-4)GlcNAc(b1-4)[Fuc(a1-6)]GlcNAc
# Method in brief: as §1
# [36] = biological target: Fuc(a1-2)[GalNAc(a1-3)]Gal(b1-4)GlcNAc(b1-3)Gal(b1-4)GlcNAc
# Method in brief: as §1
# [37] = biological target: Fuc(a1-2)[GalNAc(a1-3)]Gal(b1-4)GlcNAc(b1-3)Gal(b1-4)GlcNAc(b1-3)Gal(b1-4)GlcNAc
# Method in brief: as §1
# [38] = biological target: Fuc(a1-2)[GalNAc(a1-3)]Gal(b1-4)GlcNAc(b1-3)GalNAc
# Method in brief: as §1
# [39] = biological target: Fuc(a1-2)[GalNAc(a1-3)]Gal(b1-4)GlcNAc(b1-3)[Fuc(a1-2)[GalNAc(a1-3)]Gal(b1-4)GlcNAc(b1-6)]GalNAc
# Method in brief: as §1
# [40] = biological target: Fuc(a1-2)[GalNAc(a1-3)]Gal(b1-4)GlcNAc(b1-6)GalNAc
# Method in brief: as §1
# [41] = biological target: Fuc(a1-2)[GalNAc(a1-3)]Gal(b1-4)[Fuc(a1-3)]GlcNAc
# Method in brief: as §1
# [42] = biological target: Fuc(a1-2)[GalNAc(a1-3)]Gal(b1-4)[Fuc(a1-3)]GlcNAc(b1-3)GalNAc
# Method in brief: as §1
# [43] = biological target: Fuc(a1-2)[GalNAc(a1-4)]Gal(b1-4)GlcNAc
# Method in brief: as §1
binder,measurement,setting,value
B1,glycan array binding signal (z-score),[1],-0.094
same,glycan array binding signal (z-score),[2],1.29
same,glycan array binding signal (z-score),Fuc(a1-2)Gal6S(b1-4)Glc,1.87
same,glycan array binding signal (z-score),[3],0.976
same,glycan array binding signal (z-score),Fuc(a1-2)[Gal(a1-3)]Gal,0.657
same,glycan array binding signal (z-score),[4],0.389
same,glycan array binding signal (z-score),[5],-1.1
same,glycan array binding signal (z-score),[6],1.87
same,glycan array binding signal (z-score),[7],0.553
same,glycan array binding signal (z-score),[8],0.324
same,glycan array binding signal (z-score),[9],-0.516
same,glycan array binding signal (z-score),[10],0.938
same,glycan array binding signal (z-score),[11],1.2
same,glycan array binding signal (z-score),[12],-0.066
same,glycan array binding signal (z-score),[13],-0.077
same,glycan array binding signal (z-score),[14],-0.994
same,glycan array binding signal (z-score),[15],2.28
same,glycan array binding signal (z-score),[16],-0.604
same,glycan array binding signal (z-score),[17],0.352
same,glycan array binding signal (z-score),[18],0.391
same,glycan array binding signal (z-score),[19],-0.227
same,glycan array binding signal (z-score),[20],-0.054
same,glycan array binding signal (z-score),[21],-0.077
same,glycan array binding signal (z-score),[22],0.125
same,glycan array binding signal (z-score),[23],-0.4
same,glycan array binding signal (z-score),[24],-0.401
same,glycan array binding signal (z-score),[25],0.099
same,glycan array binding signal (z-score),[26],-0.113
same,glycan array binding signal (z-score),[27],0.373
same,glycan array binding signal (z-score),[28],-0.963
same,glycan array binding signal (z-score),[29],0.659
same,glycan array binding signal (z-score),[30],-0.874
same,glycan array binding signal (z-score),[31],-1.04
same,glycan array binding signal (z-score),[32],-0.88
same,glycan array binding signal (z-score),[33],-0.386
same,glycan array binding signal (z-score),[34],1.47
same,glycan array binding signal (z-score),[35],0.512
same,glycan array binding signal (z-score),[36],0.451
same,glycan array binding signal (z-score),[37],-0.906
same,glycan array binding signal (z-score),[38],-0.071
same,glycan array binding signal (z-score),[39],0.094
same,glycan array binding signal (z-score),[40],0.544
same,glycan array binding signal (z-score),[41],0.173
same,glycan array binding signal (z-score),[42],-0.65
same,glycan array binding signal (z-score),[43],-0.76

# Fetched one by one from the list above (two):
binder,measurement,setting,value
B1,glycan array binding signal (z-score),[32],-0.88
same,glycan array binding signal (z-score),[34],1.47
